From patent US8329392B2, “Determination of testosterone by mass spectrometry” (Quest Diagnostics Investments Incorporated, priority 2003, dated 2012)

Assay: Assay specificity: interference of other steroids in the HTLC/MS/MS testosterone assay
Conditions: Dose = 10 μg/dL

SMILES: CC12CC(=O)C3C(CCC4CC(O)CCC43C)C1CCC2C(=O)CO (stereo not drawn) [5α-THA]
- % Interference: 0.05%

SMILES: C[C@]12CC[C@@H](O)C[C@@H]1CC[C@@H]1[C@@H]2[C@@H](O)C[C@]2(C)[C@@H](C(=O)CO)CC[C@@H]12 [5α-THB]
- % Interference: 0.05%

SMILES: C[C@]12CC[C@@H](O)C[C@@H]1CC[C@@H]1[C@@H]2[C@@H](O)C[C@@]2(C)[C@H]1CC[C@]2(O)C(=O)CO [5α-THF]
- % Interference: 0.05%

SMILES: CC(=O)[C@@]1(O)CC[C@H]2[C@@H]3CCC4=CC(=O)CC[C@]4(C)[C@H]3CC[C@@]21C [17-HP]
- % Interference: 0.05%

SMILES: C[C@]12CCC(=O)C=C1CC[C@@H]1[C@@H]2[C@@H](O)C[C@@]2(C)[C@H]1CC[C@]2(O)[C@@H](O)CO [20α-DHF]
- % Interference: 0.05%

SMILES: C[C@]12CCC(=O)C=C1CC[C@@H]1[C@@H]2C(=O)C[C@@]2(C)[C@H]1CC[C@]2(O)[C@H](O)CO [20β-DHE]
- % Interference: 0.05%

SMILES: C[C@]12CCC(=O)C=C1CC[C@@H]1[C@@H]2[C@@H](O)C[C@@]2(C)[C@H]1CC[C@]2(O)[C@H](O)CO [20β-DHF]
- % Interference: 0.05%

SMILES: C[C@]12CC[C@@H](O)C[C@H]1CC[C@@H]1[C@@H]2C(=O)C[C@@]2(C)[C@H]1CC[C@]2(O)[C@@H](O)CO [A-CORTOLONE]
- % Interference: 0.05%

SMILES: C[C@]12CCC(=O)C=C1CC[C@@H]1[C@@H]2CC[C@]2(C)C(=O)CC[C@@H]12 [AD]
- % Interference: 0.05%

SMILES: C[C@]12CC[C@@H](O)C[C@@H]1CC[C@@H]1[C@@H]2CC[C@]2(C)C(=O)CC[C@@H]12 [ANDRO]
- % Interference: 0.05%

SMILES: C[C@]12CC[C@@H](O)C[C@H]1CC[C@@H]1[C@@H]2[C@@H](O)C[C@@]2(C)[C@H]1CC[C@]2(O)[C@H](O)CO [B-CORTOL]
- % Interference: 0.05%

SMILES: C[C@]12CCC(=O)C=C1CC[C@@H]1[C@@H]2[C@@H](O)C[C@@]2(C)[C@H]1CC[C@]2(O)C(=O)CO [CORTISOL]
- % Interference: 0.05%

SMILES: C[C@]12CC[C@H](O)CC1=CC[C@@H]1[C@@H]2CC[C@]2(C)C(=O)CC[C@@H]12 [DHA]
- % Interference: 0.05%

SMILES: C[C@]12CC[C@@H]3c4ccc(O)cc4CC[C@H]3[C@@H]1C[C@@H](O)[C@@H]2O [ESTRIOL]
- % Interference: 0.05%

SMILES: C[C@]12CC[C@@H](O)C[C@H]1CC[C@@H]1[C@@H]2CC[C@]2(C)C(=O)CC[C@@H]12 [ETIO]
- % Interference: 0.05%

SMILES: C[C@H](O)[C@H]1CC[C@H]2[C@@H]3CC[C@@H]4C[C@H](O)CC[C@]4(C)[C@H]3CC[C@]12C [PD]
- % Interference: 0.05%

SMILES: C[C@H](O)[C@@]1(O)CC[C@H]2[C@@H]3CC[C@@H]4C[C@H](O)CC[C@]4(C)[C@H]3C(=O)C[C@@]21C [PT-ONE]
- % Interference: 0.5%
- Observed (apparent testosterone observed): 50.0 ng/dL

SMILES: C[C@H](O)[C@@]1(O)CC[C@H]2[C@@H]3CC[C@@H]4C[C@H](O)CC[C@]4(C)[C@H]3CC[C@@]21C [PT]
- % Interference: 0.05%

SMILES: C[C@]12CC[C@@H](O)C[C@H]1CC[C@H]1[C@@H]3CC[C@H](C(=O)CO)[C@@]3(C)CC(=O)[C@@H]12 [THA]
- % Interference: 0.05%

SMILES: C[C@]12CC[C@@H](O)C[C@H]1CC[C@@H]1[C@@H]2[C@@H](O)C[C@]2(C)[C@@H](C(=O)CO)CC[C@@H]12 [THB]
- % Interference: 0.05%

SMILES: C[C@]12CC[C@@H](O)C[C@H]1CC[C@@H]1[C@@H]2CC[C@]2(C)[C@@H](C(=O)CO)CC[C@@H]12 [THDOC]
- % Interference: 0.05%

SMILES: C[C@]12CC[C@@H](O)C[C@H]1CC[C@@H]1[C@@H]2C(=O)C[C@@]2(C)[C@H]1CC[C@]2(O)C(=O)CO [THE]
- % Interference: 0.05%

SMILES: C[C@]12CC[C@@H](O)C[C@H]1CC[C@@H]1[C@@H]2[C@@H](O)C[C@@]2(C)[C@H]1CC[C@]2(O)C(=O)CO [THF]
- % Interference: 0.05%

SMILES: C[C@]12CC[C@@H](O)C[C@H]1CC[C@@H]1[C@@H]2CC[C@@]2(C)[C@H]1CC[C@]2(O)C(=O)CO [THS]
- % Interference: 0.05%

SMILES: C[C@]12CC[C@@H](O)C[C@H]1CC[C@@H]1[C@@H]2[C@@H](O)C[C@@]2(C)[C@H]1CC[C@]2(O)[C@@H](O)CO [α-CORTOL]
- % Interference: 0.05%
